# Measurements: doi:10.1101/2022.03.07.483153
# No constants are given. Whether binding was seen depends on the method and setting. In cells and extracts the contact can be indirect. Some entries that bind do so weakly or less than the wild type. Tags and fused reporters may be left off the sequences shown.
# T1: RNP-6 (C. elegans ortholog of PUF60), HA tagged at the endogenous locus (C. elegans) (UniProt Q9N3S4)
# T1 sequence: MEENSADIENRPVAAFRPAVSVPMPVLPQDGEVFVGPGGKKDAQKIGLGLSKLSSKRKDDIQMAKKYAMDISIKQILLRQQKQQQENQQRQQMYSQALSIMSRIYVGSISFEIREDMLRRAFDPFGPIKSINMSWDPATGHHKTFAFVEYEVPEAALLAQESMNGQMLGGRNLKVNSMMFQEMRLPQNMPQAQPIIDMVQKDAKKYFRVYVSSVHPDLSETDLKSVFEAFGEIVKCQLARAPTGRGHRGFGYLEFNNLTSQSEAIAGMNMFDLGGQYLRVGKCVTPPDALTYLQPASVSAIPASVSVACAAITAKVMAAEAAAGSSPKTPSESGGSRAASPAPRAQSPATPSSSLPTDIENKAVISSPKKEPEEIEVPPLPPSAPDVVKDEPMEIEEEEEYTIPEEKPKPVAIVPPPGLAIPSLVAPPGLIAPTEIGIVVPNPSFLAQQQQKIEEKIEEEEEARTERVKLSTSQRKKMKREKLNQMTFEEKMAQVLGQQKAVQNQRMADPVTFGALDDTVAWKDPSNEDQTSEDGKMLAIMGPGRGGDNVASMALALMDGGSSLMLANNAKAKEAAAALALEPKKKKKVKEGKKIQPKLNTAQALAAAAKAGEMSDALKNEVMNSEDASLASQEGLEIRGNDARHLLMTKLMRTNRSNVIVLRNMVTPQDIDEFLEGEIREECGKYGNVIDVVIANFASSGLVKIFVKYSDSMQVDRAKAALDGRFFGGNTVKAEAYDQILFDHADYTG
# T2: RBM-39 (C. elegans ortholog of RBM39), mKate2 tagged at the endogenous locus (C. elegans) (UniProt Q9N368)
# T2 sequence: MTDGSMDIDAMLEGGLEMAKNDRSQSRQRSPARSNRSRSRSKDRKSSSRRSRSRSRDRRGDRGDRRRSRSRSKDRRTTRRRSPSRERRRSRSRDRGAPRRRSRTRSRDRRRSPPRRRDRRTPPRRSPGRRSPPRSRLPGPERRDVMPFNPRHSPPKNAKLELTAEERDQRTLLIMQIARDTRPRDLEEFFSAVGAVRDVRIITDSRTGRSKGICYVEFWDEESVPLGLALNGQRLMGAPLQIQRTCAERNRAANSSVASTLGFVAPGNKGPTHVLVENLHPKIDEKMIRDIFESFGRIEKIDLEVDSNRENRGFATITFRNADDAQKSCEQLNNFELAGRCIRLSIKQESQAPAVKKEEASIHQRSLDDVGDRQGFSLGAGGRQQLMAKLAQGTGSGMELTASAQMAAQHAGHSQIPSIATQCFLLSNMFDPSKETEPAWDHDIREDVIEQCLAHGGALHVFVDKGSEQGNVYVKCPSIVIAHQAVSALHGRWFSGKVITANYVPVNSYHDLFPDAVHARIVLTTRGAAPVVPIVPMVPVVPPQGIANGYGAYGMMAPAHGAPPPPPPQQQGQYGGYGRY
# Assays:
# [1] = biological target: T1, RNP-6 (C. elegans ortholog of PUF60), HA tagged at the endogenous locus (C. elegans); experiment: co-IP
# [2] = biological target: T2, RBM-39 (C. elegans ortholog of RBM39), mKate2 tagged at the endogenous locus (C. elegans); experiment: co-IP
binding [1],binding [2],Binder
binds,–,"RBM-39 (C. elegans ortholog of RBM39), mKate2 tagged at the endogenous locus (protein, UniProt Q9N368 1-580) MTDGSMDIDAMLEGGLEMAKNDRSQSRQRSPARSNRSRSRSKDRKSSSRRSRSRSRDRRGDRGDRRRSRSRSKDRRTTRRRSPSRERRRSRSRDRGAPRRRSRTRSRDRRRSPPRRRDRRTPPRRSPGRRSPPRSRLPGPERRDVMPFNPRHSPPKNAKLELTAEERDQRTLLIMQIARDTRPRDLEEFFSAVGAVRDVRIITDSRTGRSKGICYVEFWDEESVPLGLALNGQRLMGAPLQIQRTCAERNRAANSSVASTLGFVAPGNKGPTHVLVENLHPKIDEKMIRDIFESFGRIEKIDLEVDSNRENRGFATITFRNADDAQKSCEQLNNFELAGRCIRLSIKQESQAPAVKKEEASIHQRSLDDVGDRQGFSLGAGGRQQLMAKLAQGTGSGMELTASAQMAAQHAGHSQIPSIATQCFLLSNMFDPSKETEPAWDHDIREDVIEQCLAHGGALHVFVDKGSEQGNVYVKCPSIVIAHQAVSALHGRWFSGKVITANYVPVNSYHDLFPDAVHARIVLTTRGAAPVVPIVPMVPVVPPQGIANGYGAYGMMAPAHGAPPPPPPQQQGQYGGYGRY"
–,binds,"RNP-6 (C. elegans ortholog of PUF60), HA tagged at the endogenous locus (protein, UniProt Q9N3S4 1-749) MEENSADIENRPVAAFRPAVSVPMPVLPQDGEVFVGPGGKKDAQKIGLGLSKLSSKRKDDIQMAKKYAMDISIKQILLRQQKQQQENQQRQQMYSQALSIMSRIYVGSISFEIREDMLRRAFDPFGPIKSINMSWDPATGHHKTFAFVEYEVPEAALLAQESMNGQMLGGRNLKVNSMMFQEMRLPQNMPQAQPIIDMVQKDAKKYFRVYVSSVHPDLSETDLKSVFEAFGEIVKCQLARAPTGRGHRGFGYLEFNNLTSQSEAIAGMNMFDLGGQYLRVGKCVTPPDALTYLQPASVSAIPASVSVACAAITAKVMAAEAAAGSSPKTPSESGGSRAASPAPRAQSPATPSSSLPTDIENKAVISSPKKEPEEIEVPPLPPSAPDVVKDEPMEIEEEEEYTIPEEKPKPVAIVPPPGLAIPSLVAPPGLIAPTEIGIVVPNPSFLAQQQQKIEEKIEEEEEARTERVKLSTSQRKKMKREKLNQMTFEEKMAQVLGQQKAVQNQRMADPVTFGALDDTVAWKDPSNEDQTSEDGKMLAIMGPGRGGDNVASMALALMDGGSSLMLANNAKAKEAAAALALEPKKKKKVKEGKKIQPKLNTAQALAAAAKAGEMSDALKNEVMNSEDASLASQEGLEIRGNDARHLLMTKLMRTNRSNVIVLRNMVTPQDIDEFLEGEIREECGKYGNVIDVVIANFASSGLVKIFVKYSDSMQVDRAKAALDGRFFGGNTVKAEAYDQILFDHADYTG"
